2 substances from PMC7910549 can be followed below.

Amino acid sequences for entries named in this document (tags omitted).
UniProt Q13619: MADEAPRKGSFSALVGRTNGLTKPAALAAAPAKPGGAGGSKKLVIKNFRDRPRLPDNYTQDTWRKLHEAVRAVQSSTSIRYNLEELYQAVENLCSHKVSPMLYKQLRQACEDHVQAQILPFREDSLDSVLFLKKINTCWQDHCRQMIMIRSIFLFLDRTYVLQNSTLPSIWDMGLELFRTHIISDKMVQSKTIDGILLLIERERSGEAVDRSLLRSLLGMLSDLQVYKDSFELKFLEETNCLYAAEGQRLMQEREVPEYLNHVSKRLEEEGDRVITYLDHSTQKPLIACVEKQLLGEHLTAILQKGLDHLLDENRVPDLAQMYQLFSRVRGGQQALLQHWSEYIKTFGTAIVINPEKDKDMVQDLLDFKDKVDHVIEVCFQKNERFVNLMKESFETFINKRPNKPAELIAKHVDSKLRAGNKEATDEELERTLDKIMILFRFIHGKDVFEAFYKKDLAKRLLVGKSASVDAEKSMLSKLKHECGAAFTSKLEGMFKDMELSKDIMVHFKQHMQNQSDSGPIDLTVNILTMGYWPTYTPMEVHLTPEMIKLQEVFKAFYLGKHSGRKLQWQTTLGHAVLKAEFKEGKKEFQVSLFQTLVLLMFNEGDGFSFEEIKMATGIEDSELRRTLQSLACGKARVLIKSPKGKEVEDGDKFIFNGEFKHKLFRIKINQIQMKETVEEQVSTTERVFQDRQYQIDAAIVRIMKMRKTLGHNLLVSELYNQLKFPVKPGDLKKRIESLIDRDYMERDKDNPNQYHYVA
UniProt Q16531: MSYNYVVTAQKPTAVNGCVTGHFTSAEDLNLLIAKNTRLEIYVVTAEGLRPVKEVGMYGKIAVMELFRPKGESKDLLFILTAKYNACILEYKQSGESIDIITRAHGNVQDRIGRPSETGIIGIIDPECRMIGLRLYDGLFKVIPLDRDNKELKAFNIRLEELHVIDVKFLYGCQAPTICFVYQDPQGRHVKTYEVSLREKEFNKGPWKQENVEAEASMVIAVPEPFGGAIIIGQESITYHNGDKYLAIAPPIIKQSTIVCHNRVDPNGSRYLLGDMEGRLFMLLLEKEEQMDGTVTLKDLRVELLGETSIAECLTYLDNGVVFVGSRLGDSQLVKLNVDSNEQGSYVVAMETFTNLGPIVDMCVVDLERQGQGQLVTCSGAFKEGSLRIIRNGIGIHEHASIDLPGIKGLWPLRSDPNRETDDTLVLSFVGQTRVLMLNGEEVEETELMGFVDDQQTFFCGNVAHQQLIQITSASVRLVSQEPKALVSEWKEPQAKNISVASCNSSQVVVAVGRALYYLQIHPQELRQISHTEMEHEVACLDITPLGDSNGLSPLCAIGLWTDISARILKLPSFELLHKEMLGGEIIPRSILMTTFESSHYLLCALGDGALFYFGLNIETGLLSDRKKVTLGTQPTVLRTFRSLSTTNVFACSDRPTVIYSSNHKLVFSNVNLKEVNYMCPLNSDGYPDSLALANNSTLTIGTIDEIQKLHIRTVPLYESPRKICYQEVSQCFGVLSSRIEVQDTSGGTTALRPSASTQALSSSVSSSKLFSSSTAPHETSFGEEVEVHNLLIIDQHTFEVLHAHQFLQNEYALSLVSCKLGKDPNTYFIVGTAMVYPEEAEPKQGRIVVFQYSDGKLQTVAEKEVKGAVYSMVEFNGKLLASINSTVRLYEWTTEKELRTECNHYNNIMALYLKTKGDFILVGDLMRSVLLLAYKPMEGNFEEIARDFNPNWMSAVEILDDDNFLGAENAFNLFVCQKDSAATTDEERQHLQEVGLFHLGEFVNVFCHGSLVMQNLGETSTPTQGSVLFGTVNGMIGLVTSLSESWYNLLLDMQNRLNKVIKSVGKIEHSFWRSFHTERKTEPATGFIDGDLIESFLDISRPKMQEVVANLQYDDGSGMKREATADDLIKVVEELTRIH

This assay addresses GFP-tagged CSB (UniProt Q03468). The experiment in a line: affinity purification with mass spectrometry; label-free quantification and iBAQ; GFP-CSB pulled down with GFP Trap beads from U2OS CSB-KO cells; untreated against 20 J/m^2 UV-C with 1 h recovery.

No constants are given. Whether binding was seen depends on the method and setting. In cells and extracts the contact can be indirect. These calls come from enrichment with a bait or labelling near it, and not all partners need be listed.

With “CUL4A, endogenous (from UniProt Q13619 1-759)”, the binding result is “binds”.
For “DDB1, endogenous (from UniProt Q16531 1-1140)” the value was “binds”.
